Results from article PMC7501853.
No constants are given. Whether binding was seen depends on the method and setting. In cells and extracts the contact can be indirect. A result given as binding can be weak or reduced; the word gives no strength.

Sequences of proteins named here, by UniProt entry; tags and fusion partners are left off. A change or cut given only in a name is not applied to a line headed by its entry.
UniProt Q07812: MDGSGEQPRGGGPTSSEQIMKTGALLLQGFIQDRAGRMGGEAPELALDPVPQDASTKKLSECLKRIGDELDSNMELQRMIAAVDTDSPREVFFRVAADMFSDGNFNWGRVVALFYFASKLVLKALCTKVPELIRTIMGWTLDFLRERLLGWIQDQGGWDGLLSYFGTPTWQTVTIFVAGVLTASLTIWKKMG

Biological target: nesprin-2-Giant (mouse (endogenous in MEFs)) (UniProt Q6ZWQ0)
Test: proximity ligation; Duolink PLA in fixed Bax/Bak DKO MEFs transiently transfected, with Q-VD-OPH; anti-Bax 6A7 (GFP-Bax, FLAG-Bax) or anti-His (His-Bax) with anti-nesprin-2G or pan anti-nesprin-2 K2 Ab; dots normalised to cell size, relative to control-transfected cells

binding: binds
Substance: GFP-Bax ∆α2 (from UniProt Q07812)
